{"sequences": {"note": "Chains of the proteins cited; added tags and fusions are not shown. Residues count along the entry.", "UniProt Q9H4L7, 351-1026 V974A": "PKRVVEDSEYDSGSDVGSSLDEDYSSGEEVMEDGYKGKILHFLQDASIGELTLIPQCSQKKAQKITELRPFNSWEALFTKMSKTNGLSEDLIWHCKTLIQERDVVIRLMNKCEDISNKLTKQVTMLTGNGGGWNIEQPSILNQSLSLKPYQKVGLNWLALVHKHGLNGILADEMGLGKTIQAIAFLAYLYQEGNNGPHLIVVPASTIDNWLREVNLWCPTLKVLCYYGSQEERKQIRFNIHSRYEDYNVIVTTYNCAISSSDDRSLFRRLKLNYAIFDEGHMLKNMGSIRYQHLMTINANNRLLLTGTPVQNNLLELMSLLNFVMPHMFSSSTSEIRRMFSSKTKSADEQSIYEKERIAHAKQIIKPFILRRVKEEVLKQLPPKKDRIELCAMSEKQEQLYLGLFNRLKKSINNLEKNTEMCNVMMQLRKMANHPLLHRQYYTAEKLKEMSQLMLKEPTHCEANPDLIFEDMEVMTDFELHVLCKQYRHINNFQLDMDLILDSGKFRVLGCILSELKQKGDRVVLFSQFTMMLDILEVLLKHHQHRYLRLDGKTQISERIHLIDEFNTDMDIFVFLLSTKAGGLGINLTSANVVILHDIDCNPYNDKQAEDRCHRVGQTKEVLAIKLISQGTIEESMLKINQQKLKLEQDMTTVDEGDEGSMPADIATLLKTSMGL", "UniProt Q9H4L7, whole entry V974A": "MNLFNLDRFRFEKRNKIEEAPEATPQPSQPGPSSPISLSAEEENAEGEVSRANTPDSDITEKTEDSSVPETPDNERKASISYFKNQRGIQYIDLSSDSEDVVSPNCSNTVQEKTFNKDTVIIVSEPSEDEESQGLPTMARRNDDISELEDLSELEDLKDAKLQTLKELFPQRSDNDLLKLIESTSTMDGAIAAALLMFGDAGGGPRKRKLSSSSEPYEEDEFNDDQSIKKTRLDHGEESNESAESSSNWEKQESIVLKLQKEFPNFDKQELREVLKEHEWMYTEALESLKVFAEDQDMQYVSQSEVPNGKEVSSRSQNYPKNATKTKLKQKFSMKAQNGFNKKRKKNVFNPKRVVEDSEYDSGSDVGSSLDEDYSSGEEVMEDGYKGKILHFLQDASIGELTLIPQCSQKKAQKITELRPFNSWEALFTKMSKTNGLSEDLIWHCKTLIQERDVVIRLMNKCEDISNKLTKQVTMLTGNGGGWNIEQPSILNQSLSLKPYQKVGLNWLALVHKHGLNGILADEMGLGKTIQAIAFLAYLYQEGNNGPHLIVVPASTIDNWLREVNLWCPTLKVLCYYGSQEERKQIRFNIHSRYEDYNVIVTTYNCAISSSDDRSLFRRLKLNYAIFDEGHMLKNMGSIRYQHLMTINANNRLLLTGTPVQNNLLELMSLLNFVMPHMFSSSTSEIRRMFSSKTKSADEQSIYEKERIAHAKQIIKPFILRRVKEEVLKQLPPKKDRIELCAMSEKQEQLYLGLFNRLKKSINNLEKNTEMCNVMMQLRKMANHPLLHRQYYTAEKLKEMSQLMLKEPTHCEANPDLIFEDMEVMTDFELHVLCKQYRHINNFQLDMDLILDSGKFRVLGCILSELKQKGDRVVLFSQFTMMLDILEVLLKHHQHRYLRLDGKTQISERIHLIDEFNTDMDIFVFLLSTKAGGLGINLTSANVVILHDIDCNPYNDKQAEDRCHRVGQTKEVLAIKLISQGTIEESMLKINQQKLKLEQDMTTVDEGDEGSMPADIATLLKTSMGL"}, "source": "paper PMC11742319", "about": "“Phosphorylation regulates the chromatin remodeler SMARCAD1 in nucleosome binding, ATP hydrolysis, and histone exchange”", "key": {"[1]": {"biological_target": "Δ350 SMARCAD1, phosphorylated V974A,del1-350 (human) (UniProt Q9H4L7)", "experiment": "fluorescence polarization", "conditions": "FP: 50 mM HEPES pH 7.5, 2 mM DTT, 10% glycerol, 0.01% CHAPS, 0.01% NP-40, no added salt stated, room temperature 30 min, 10 nM nucleosome or DNA, 0-5 uM SMARCAD1, recombinant protein, residues 351-1026, protein details: 6xHis"}, "[2]": {"biological_target": "WT SMARCAD1, phosphorylated V974A (human) (UniProt Q9H4L7)", "experiment": "fluorescence polarization", "conditions": "FP: 50 mM HEPES pH 7.5, 2 mM DTT, 10% glycerol, 0.01% CHAPS, 0.01% NP-40, no added salt stated, room temperature 30 min, 10 nM nucleosome or DNA, 0-5 uM SMARCAD1, recombinant protein, residues 1-1026, protein details: 6xHis (C- or N-terminal)"}}, "note": "pKd: −log10 of the molar value. For at least one entry, the source does not settle the construct or the ends of the probe.", "data": [{"sequence": "CGAGCCAGGCCTGAGAATCCGGTGCCGAGGCCGCTCAATTGGTCGTAGACAGCTCTAGCACCGCTTAAACGCACGTACGCGCTGTCCCCCGCGTTTTAACCGCCAAGGGGATTACTCCCTAGTCTCCAGGCACGTGTCAGATATATACATCCAGGCCTTGTGTCG (double strand) [165 bp 601 DNA]", "values": [{"measurement": "pKd", "setting": "[1]", "result": 6.98}, {"measurement": "pKd", "setting": "[2]", "result": 7.01}]}]}
